This data set can be described thus: Cell-free protein synthesis (PURE system) followed by luminescence. To be noted: cell-free expression of mCherry-Y-FAST fusion.

B1: Clone 3: best fluorescent HBR-binding PYP variant, SEQ ID NO: 3, residues 94-101 WMIPTSRG (protein)
chain: MEHVAFGSEDIENTLAKMDDGQLDGLAFGAIQLDGDGNILQYNAAEGDITGRDPKQVIGKNFFKDVAPGTDSPEFYGKFKEGVASGNLNTMFEWMIPTSRGPTKVKVHMKKALSGDSYWVFVKRV
modifications: Functional derivative of SEQ ID NO: 48 - Clone 3
On to B1, for which the “time of first detection of fluorescence after initiation of protein synthesis” value amounted to 10 min and the “time to reach saturation of fluorescence” value is reported as ≤ 90 min.

The record behind these values is patent US20170137473A1, “FLUOROGEN ACTIVATING AND SHIFTING TAG (FAST)” (PARIS SCIENCES ET LETTRE - QUARTIER LATIN, priority 2014, published 2017).
